Experimental data from the supplement of paper PMC10849652.
This is one part of the list.

By UniProt entry, the sequences of proteins in these tests, tags left out. Where a name states a change or a piece, a line headed by the entry shows the natural chain unless it says otherwise.
UniProt Q14934: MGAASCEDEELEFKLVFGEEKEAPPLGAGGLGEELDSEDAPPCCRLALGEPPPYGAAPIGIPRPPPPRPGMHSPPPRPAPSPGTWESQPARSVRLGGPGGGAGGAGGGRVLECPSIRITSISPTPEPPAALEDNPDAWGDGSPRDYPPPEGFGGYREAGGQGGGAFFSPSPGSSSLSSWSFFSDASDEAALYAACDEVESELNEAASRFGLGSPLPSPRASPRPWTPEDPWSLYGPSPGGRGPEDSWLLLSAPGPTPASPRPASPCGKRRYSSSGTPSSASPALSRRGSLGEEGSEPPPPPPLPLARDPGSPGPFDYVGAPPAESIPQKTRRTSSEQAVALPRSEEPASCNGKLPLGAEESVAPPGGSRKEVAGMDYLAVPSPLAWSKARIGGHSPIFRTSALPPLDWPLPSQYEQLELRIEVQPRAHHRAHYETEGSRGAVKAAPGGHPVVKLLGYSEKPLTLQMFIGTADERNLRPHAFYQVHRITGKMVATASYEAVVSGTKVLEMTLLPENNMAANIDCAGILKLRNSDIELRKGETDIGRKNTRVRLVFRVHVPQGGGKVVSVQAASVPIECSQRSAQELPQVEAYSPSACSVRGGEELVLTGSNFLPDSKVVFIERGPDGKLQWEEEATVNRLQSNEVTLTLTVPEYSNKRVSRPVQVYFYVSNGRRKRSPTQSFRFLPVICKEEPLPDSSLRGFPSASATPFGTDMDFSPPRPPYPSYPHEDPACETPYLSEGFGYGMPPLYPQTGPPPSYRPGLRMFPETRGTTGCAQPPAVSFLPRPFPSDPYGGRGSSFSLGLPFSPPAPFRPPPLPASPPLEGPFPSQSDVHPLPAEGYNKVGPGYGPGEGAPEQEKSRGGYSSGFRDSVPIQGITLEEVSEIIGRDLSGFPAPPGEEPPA
UniProt P46459: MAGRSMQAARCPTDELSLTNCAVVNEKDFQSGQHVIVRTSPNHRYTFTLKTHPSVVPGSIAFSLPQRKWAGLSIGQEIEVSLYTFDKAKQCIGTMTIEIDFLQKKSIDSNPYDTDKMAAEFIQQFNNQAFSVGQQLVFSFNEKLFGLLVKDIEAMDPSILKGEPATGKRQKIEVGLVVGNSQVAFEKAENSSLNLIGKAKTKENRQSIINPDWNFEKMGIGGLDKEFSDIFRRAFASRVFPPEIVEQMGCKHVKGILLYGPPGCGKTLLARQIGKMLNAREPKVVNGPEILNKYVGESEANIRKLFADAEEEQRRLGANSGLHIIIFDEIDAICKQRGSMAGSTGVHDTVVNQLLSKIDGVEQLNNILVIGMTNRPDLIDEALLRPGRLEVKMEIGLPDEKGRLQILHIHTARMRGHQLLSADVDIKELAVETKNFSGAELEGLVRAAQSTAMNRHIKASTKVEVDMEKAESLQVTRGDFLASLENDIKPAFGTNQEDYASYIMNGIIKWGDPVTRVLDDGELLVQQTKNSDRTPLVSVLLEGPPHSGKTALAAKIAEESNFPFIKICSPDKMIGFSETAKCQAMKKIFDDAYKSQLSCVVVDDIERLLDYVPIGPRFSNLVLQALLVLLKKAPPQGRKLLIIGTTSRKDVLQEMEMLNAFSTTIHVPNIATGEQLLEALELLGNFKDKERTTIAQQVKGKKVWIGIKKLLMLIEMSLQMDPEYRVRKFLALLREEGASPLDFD
UniProt Q8WX92, whole entry, looked up: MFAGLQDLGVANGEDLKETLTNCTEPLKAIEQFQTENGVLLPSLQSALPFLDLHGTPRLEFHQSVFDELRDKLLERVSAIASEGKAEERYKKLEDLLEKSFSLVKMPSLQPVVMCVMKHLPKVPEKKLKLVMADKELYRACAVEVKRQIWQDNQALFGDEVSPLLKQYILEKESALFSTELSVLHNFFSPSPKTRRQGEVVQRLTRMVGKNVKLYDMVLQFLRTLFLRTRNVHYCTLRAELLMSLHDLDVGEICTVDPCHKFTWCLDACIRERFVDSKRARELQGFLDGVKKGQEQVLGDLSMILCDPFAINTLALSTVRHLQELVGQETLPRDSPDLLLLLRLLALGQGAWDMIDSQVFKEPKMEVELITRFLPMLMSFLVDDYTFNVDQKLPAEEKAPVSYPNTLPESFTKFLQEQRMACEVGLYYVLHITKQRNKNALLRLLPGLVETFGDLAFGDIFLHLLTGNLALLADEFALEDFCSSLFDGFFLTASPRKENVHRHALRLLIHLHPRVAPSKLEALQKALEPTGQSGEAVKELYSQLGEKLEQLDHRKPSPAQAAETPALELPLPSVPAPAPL
UniProt Q92636: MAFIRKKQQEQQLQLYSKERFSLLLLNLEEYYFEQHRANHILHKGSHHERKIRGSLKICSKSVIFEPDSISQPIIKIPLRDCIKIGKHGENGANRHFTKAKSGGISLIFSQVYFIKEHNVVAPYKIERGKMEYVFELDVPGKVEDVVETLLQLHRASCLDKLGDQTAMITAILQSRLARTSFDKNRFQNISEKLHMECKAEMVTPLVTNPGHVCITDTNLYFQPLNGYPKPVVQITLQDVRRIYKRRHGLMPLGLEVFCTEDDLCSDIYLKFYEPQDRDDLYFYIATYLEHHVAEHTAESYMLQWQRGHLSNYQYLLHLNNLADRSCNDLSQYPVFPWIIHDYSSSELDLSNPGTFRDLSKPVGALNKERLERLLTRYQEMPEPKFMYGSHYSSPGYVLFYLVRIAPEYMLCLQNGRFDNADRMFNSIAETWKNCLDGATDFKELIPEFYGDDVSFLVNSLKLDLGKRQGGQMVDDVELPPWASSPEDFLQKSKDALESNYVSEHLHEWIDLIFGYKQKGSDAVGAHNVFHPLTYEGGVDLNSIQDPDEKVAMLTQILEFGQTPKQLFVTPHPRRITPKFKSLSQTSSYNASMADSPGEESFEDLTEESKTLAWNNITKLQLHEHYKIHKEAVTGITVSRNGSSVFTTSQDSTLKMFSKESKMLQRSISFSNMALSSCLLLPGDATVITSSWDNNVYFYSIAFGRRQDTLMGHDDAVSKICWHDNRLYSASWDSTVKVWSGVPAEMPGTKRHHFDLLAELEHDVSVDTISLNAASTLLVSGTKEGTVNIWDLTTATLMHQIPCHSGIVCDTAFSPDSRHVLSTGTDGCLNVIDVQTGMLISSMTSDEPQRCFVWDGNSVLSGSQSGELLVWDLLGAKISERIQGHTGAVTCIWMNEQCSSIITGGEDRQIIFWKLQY
UniProt Q9BXD5: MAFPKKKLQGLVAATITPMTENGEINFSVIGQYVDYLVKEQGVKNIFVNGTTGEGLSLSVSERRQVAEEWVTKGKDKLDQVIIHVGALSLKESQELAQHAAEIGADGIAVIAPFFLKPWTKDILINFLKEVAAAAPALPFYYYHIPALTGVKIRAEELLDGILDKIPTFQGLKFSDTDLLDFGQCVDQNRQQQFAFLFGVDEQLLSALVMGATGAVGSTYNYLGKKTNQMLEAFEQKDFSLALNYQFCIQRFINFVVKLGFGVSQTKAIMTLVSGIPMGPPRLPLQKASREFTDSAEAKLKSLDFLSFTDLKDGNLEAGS
UniProt Q12968: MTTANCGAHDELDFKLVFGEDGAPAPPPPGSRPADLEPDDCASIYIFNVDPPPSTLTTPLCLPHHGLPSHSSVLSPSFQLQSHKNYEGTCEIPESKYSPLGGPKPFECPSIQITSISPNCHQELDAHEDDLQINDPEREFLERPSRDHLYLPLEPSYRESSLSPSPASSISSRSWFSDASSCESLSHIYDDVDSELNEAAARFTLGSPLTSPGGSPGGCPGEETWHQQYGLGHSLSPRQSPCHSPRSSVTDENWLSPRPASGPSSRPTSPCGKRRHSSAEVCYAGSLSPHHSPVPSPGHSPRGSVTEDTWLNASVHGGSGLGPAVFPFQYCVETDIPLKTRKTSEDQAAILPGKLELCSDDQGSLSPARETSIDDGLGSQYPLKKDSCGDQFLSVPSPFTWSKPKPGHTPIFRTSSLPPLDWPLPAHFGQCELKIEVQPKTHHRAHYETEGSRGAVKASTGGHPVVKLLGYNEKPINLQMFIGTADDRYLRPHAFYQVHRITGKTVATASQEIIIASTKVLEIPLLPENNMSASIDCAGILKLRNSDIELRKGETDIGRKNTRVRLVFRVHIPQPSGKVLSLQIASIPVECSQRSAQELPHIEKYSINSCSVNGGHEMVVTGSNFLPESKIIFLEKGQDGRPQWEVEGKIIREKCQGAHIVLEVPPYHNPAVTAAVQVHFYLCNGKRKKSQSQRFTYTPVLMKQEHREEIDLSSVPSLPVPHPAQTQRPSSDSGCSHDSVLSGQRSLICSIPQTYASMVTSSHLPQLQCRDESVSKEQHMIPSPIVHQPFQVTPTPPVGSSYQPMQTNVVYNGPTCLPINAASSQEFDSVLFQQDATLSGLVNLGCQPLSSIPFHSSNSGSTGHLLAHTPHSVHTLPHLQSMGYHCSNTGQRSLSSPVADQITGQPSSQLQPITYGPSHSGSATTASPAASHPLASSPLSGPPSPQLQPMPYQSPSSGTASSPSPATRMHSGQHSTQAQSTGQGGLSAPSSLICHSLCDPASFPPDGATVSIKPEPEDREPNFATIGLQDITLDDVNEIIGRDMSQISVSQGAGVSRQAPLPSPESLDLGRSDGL
UniProt P19838: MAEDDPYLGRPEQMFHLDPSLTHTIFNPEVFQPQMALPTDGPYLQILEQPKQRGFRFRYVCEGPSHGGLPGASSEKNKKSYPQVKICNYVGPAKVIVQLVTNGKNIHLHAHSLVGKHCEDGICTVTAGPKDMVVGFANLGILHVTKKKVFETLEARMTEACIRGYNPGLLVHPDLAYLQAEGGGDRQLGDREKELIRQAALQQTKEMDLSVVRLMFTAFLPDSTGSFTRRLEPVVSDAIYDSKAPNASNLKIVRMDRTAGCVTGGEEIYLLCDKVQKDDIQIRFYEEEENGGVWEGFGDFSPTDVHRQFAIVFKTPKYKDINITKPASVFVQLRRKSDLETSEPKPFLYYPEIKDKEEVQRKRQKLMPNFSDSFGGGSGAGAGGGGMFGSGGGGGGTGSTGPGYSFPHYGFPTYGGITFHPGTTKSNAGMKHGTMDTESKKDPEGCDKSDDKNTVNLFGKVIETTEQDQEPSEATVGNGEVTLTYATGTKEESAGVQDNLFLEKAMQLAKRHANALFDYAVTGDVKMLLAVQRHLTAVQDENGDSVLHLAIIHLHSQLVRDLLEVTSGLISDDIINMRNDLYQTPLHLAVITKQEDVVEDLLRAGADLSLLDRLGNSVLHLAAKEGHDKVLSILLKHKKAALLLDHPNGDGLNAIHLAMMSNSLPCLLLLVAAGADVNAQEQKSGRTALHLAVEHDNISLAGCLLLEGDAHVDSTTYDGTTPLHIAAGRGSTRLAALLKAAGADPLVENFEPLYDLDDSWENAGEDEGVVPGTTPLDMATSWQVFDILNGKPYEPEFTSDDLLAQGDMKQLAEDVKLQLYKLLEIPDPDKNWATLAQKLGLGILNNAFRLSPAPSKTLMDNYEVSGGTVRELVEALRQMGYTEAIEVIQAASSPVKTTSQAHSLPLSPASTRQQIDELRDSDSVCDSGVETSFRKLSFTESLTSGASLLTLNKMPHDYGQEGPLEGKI
UniProt Q92686, whole entry, looked up: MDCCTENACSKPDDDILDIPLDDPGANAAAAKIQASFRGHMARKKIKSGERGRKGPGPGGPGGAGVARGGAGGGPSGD
UniProt Q8TAT6: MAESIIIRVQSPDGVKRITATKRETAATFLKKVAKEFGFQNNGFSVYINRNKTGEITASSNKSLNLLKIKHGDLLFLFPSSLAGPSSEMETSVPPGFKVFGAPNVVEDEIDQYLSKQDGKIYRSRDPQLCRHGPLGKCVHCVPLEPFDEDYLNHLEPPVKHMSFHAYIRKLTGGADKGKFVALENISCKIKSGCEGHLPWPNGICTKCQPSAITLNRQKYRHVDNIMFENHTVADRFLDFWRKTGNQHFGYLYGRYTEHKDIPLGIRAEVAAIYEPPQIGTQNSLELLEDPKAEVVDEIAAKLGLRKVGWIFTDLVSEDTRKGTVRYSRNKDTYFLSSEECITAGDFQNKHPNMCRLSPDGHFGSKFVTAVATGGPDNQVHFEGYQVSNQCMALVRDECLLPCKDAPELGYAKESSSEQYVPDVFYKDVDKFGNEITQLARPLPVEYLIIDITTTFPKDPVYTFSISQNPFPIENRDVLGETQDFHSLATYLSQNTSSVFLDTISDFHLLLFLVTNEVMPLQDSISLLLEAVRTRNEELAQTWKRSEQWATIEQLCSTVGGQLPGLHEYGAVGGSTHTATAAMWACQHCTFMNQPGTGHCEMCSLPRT
UniProt O60361, whole entry, looked up: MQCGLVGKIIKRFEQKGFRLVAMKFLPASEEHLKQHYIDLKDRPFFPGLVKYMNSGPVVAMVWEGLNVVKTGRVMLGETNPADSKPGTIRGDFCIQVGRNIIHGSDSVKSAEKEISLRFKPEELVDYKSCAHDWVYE

Compound: Cn1cc(-c2ccc3nnc(C(F)(F)c4ccc5ncccc5c4)n3n2)cn1
Experiment: log2 fold change, soluble protein after heating vs DMSO (PISA); higher = thermal stabilisation; K562 cells, 10 uM, 30 min; active = over 0.2 and 3.5 SD of the protein, either way, in both replicates (recomputed)
How it was run: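 Thermal stability values are relative to control samples and come from duplicates. They are expressed as log2 fold changes. For measurement, K562 cells (2×10^6 cells/mL) received 10 μM compound for 30 min, and aliquots were heated for 3 min over 48°C-58°C, pooled, and extracted at 4°C in PBS with 0.5% NP-40. Soluble protein, the supernatant after 21,000xg for 90 min, was quantified by TMTpro 16plex LC-MS/MS with equalised channel sums.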

log2 fold change, inactive:
NFATC4 isoform 2 (UniProt Q14934) -0.216
NGLY1 (UniProt Q96IV0) -0.034
NSF (UniProt P46459) 0.017
NLN (UniProt Q9BYT8) 0.02
NHP2 (UniProt Q9NX24) -0.021
NELFB isoform 2 (UniProt Q8WX92) 0.014
NFXL1 (UniProt Q6ZNB6) -0.017
NSMAF (UniProt Q92636) -0.038
NNT (UniProt Q13423) 0.037
NPL (UniProt Q9BXD5) 0.077
NOP56 (UniProt O00567) -0.18
NFATC3 (UniProt Q12968) 0.191
NFKB1 isoform 2 (UniProt P19838) -0.036
NRGN (UniProt Q92686) 0.074
NPLOC4 isoform 2 (UniProt Q8TAT6) 0.04
NME2P1 (UniProt O60361) -0.013
NRAS (UniProt P01111) 0.031
NEK7 (UniProt Q8TDX7) -0.02
NEMF (UniProt O60524) -0.178
NOD1 (UniProt Q9Y239) 0.047
NMI (UniProt Q13287) 0.034
NOA1 (UniProt Q8NC60) -0.1
NOP2 isoform 4 (UniProt P46087) -0.319

An excerpt taken from the entries so far, as a working copy:
log2 fold change, inactive:
NRGN (UniProt Q92686) 0.074
NPLOC4 isoform 2 (UniProt Q8TAT6) 0.04
